# Values quoted from earlier work, collected in patent US20050032863A1, “Method of treating or preventing central nervous system disorders with compounds having selectivity for the alpha 3 subunit of the benzodiazepine receptor” (priority 2003, published 2005).
# Read-outs that look alike come from different tables or passages of the source.
# System: 5-HT release in the brain
# Settings: literature reports, cited from earlier work
smiles,measurement,setting,value
"CN1C(=O)CN=C(c2ccccc2)c2cc(Cl)ccc21 [Diazepam, reference compound]",effect on 5-HT release / extracellular 5-HT in the brain,,no effect
same,effect on 5-HT release / extracellular 5-HT in the brain,listed as diazepam,do not increase but rather decrease
